Laboratory results: paper PMC7145534, “Are the intrinsically disordered linkers involved in SSB binding to accessory proteins?” (Nucleic Acids Research, 2019)
Several values for one entry are separate records, joined by “and”; a condition that tells them apart may be missing. Equal entries are not always repeated. Entries after “also recorded” stand apart in the source; their conditions may differ.

Columns and labels:
E. coli RecO = assay: ITC of SSB-Ct peptides binding to RecO; set-up: species or system Escherichia coli
Experimental: (§1) The concentrations were determined thereafter.

DNA Pol III (χ) = assay: ITC of SSB-Ct peptides binding to the χ subunit; set-up: species or system Escherichia coli; conditions: pH 8.0, 50 mM NaCl, 25°C; K, N, ΔH floated
Experimental: as §1

PriA [1] = conditions: pH 8.0, 50 mM NaCl, 25°C; K, N, ΔH floated
PriC = assay: Sedimentation velocity, effect of P15 on PriC; format: binding, Escherichia coli
PriA [2] = test system: PriA
[3] = pH 7, 200 mM NaCl, 15°C, N fixed to 1
[4] = pH 7.0, 200 mM NaCl, 15 °C, N floated
[5] = pH 7, 200 mM NaCl, 25°C, N fixed to 1
[6] = pH 7.0, 200 mM NaCl, 25 °C, N floated
[7] = pH 7.0, 200 mM NaCl, 37 °C, N floated
[8] = pH 8, 50 mM NaCl, 25°C, N fixed to 1
[9] = pH 8.0, 50 mM NaCl, 25 °C, N floated
[10] = pH 8, 200 mM NaCl, 25°C, N fixed to 1
[11] = pH 8.0, 200 mM NaCl, 25 °C, N floated

For “P15: SSB-Ct peptide, C-terminal 15 amino acids of E. coli SSB, contains acidic tip, no PXXP motifs (PSNEPPMDFDDDIPF)”, the “change in binding enthalpy, pH 8.0 to 7.0” value (E. coli RecO; 200 mM NaCl, 25°C) was about 2 kcal/mol, the “reduction in affinity, pH 8.0 to 7.0” value (E. coli RecO; 200 mM NaCl, 25°C) was 3 fold and the ΔH (E. coli RecO; Figure S3, 10°C, pH 8.0, 50 mM, N floated) was -0.48 ± 0.01 kcal/mol. The ΔH (E. coli RecO; Figure S3, 15°C, pH 8.0, 50 mM, N floated) was -2.2 ± 0.04 kcal/mol, the ΔH (E. coli RecO; Figure S3, 37°C, pH 8.0, 50 mM, N floated) was -9.03 ± 0.16 kcal/mol and the ΔH (E. coli RecO; Figure S3, 40°C, pH 8.0, 50 mM, N floated) was -10.2 ± 0.23 kcal/mol. The ΔH (E. coli RecO; Figures S3/S4a, 25°C, pH 8.0, 50 mM NaCl, N floated) was -5.0 ± 0.03 kcal/mol, the “TΔS°” value (E. coli RecO; Table S2 replicate 1) was 5.1 ± 0.1 kcal/mol and the “ΔG°” value (E. coli RecO; Table S2 replicate 1) was -9.9 ± 0.1 kcal/mol. The ΔH (E. coli RecO; Table S2 replicate 1) was -4.8 ± 0.1 kcal/mol, the “TΔS°” value (E. coli RecO; Table S2 replicate 2) was 5.0 ± 0.1 kcal/mol and the “ΔG°” value (E. coli RecO; Table S2 replicate 2) was -10.0 ± 0.1 kcal/mol. For the same substance, the ΔH (E. coli RecO; Table S2 replicate 2) was -5.0 ± 0.1 kcal/mol, the “TΔS°” value (E. coli RecO; [3]) was 5.9 ± 0.3 kcal/mol and the “ΔG°” value (E. coli RecO; [3]) was -8.3 ± 0.2 kcal/mol. For the same substance, the “TΔS°” value (E. coli RecO; [4]) was 5.8 ± 0.3 kcal/mol, the “ΔG°” value (E. coli RecO; [4]) was -8.2 ± 0.3 kcal/mol and the “TΔS°” value (E. coli RecO; [5]) was 2.0 ± 0.3 kcal/mol. The “ΔG°” value (E. coli RecO; [5]) was -8.1 ± 0.2 kcal/mol, the “TΔS°” value (E. coli RecO; [6]) was 2.2 ± 0.2 kcal/mol and the “ΔG°” value (E. coli RecO; [6]) was -8.2 ± 0.1 kcal/mol. The “ΔG°” value (E. coli RecO; pH 7, 200 mM NaCl, 37°C, N fixed to 1) was -8.1 ± 0.1 kcal/mol, the “ΔG°” value (E. coli RecO; [7]) was -8.0 ± 0.2 kcal/mol and the ΔH (E. coli RecO; [7]) was -8.2 ± 0.1 kcal/mol. The “heat capacity change, ΔCp” value (E. coli RecO; pH 7.0, 200 mM NaCl, 15-37°C) was −0.24 ± 0.06 kcal/mol⋅deg, the “change in ΔH, 200 mM vs 50 mM NaCl” value (E. coli RecO; pH 8) was about 1.3 kcal/mol and the “factor by which K is lower at 200 mM vs 50 mM NaCl” value (E. coli RecO; pH 8) was 4 factor. For the same substance, the “ΔH (enthalpy change)” value (E. coli RecO; pH 8.0, 50 mM NaCl, 25°C, K, N, ΔH floated) was -4.8 ± 0.1 kcal/mol and -4.8 ± 0.7 kcal/mol, the “TΔS°” value (E. coli RecO; [8]) was 4.5 ± 0.2 kcal/mol and the “ΔG°” value (E. coli RecO; [8]) was -9.7 ± 0.2 kcal/mol. For the same substance, the “TΔS°” value (E. coli RecO; [9]) was 5.1 ± 0.1 kcal/mol, the “ΔG°” value (E. coli RecO; [9]) was -9.9 ± 0.1 kcal/mol and the “TΔS°” value (E. coli RecO; [10]) was 5.0 ± 0.1 kcal/mol. For the same substance, the “ΔG°” value (E. coli RecO; [10]) was -8.9 ± 0.1 kcal/mol, the “TΔS°” value (E. coli RecO; [11]) was 4.8 ± 0.1 kcal/mol and the “ΔG°” value (E. coli RecO; [11]) was -8.8 ± 0.1 kcal/mol. The “ΔH (enthalpy change)” value (DNA Pol III (χ)) was -8.7 ± 0.8 kcal/mol, the “ΔH (enthalpy change)” value (PriA [1]) was -10.0 ± 0.4 kcal/mol and the “assembly state of PriC” value (PriC; 30-fold excess P15) was “higher order species at ~3.5 S is suppressed; also recorded: favors the PriC monomer and suppresses the higher order species”. For the same substance, the “sedimentation coefficient s20,w of PriC with peptide” value (PriC; 30-fold excess P15, BTP pH 8.0, 10 mM NaCl, PriC alone 1.89 S) was 1.95 S, the “assembly state of RecO” value (RecO; 30-fold excess P15) was “monomeric before and after P15 binding” and the “sedimentation coefficient s20,w of RecO with peptide” value (RecO; 30-fold excess P15, BTP pH 8.0, 50 mM NaCl, RecO alone 2.06 S) was 2.16 S. The “assembly state of PriA” value (PriA [2]; 30-fold excess P15) was “monomeric before and after P15 binding” and the “sedimentation coefficient s20,w of PriA with peptide” value (PriA [2]; 30-fold excess P15, BTP pH 8.0, 50 mM NaCl, PriA alone 4.09 S) was 4.19 S.
